Measured values as given in patent US6592885B2, “Method for making infection-resistant fabricated textile articles for biomedical applications” (priority 2001, dated 2003).
Entries after “also recorded” stand apart in the source; their conditions may differ. For at least one compound, name, drawing or mass did not settle the structure.

Test system: S. aureus
Assay: MIC/MBC of native and heated Cipro/Oflox (heat stability)
Assay type: cell-based, Staphylococcus aureus
Details: heated versus native antibiotic
Experimental: An inoculum of S. aureus was diluted to obtain a bacterial concentration of 10^6 S. aureus/ml. […] V. Mosby, St. Louis, 1986]. Antibiotic concentrations in the assay were […].

Q: `CC1COc2c(N3CCN(C)CC3)c(F)cc3c(=O)c(C(=O)O)cn1c23` (stereo not shown) [Oflox, Ofloxacin] was tested. Which “antimicrobial activity (MIC/MBC) after exposure to standard dye bath / pad/heat heating conditions” value did it give?
A: retained; also recorded: no variation in antimicrobial activity
